Amino acid sequences for entries named in this document (tags omitted). A change or cut given only in a name is not applied to a line headed by its entry.
UniProt Q9WV60: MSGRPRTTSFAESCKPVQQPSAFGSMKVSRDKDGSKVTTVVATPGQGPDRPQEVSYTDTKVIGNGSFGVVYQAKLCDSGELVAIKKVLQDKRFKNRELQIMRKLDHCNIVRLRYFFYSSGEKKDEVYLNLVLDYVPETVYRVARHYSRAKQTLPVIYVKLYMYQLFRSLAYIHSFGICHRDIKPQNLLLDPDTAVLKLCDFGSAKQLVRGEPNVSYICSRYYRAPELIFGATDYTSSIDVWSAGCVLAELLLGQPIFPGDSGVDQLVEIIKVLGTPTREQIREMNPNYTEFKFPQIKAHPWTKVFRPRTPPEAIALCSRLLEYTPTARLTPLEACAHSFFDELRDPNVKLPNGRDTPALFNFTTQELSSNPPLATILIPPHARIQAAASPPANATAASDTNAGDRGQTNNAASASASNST

According to patent publication US11918822B2, “Compositions and methods for enhancing the biological response to chemical agents and physical stimuli” (The Research Foundation for the State University of New York, priority 2010, dated 2024):

Biological target: GSK3β (Mus musculus, UniProt Q9WV60)
Assay: Effect of GSK3β inhibition on β-catenin and NFATc1/COX2 activation in mdMSCs (nuclear/cytoplasmic fractionation, Western blot)
Type: cell-based, mice
Protocol: Key experiments were replicated in a marrow derived mesenchymal stem cell line (mdMSC) generated from C56/BL6 wild-type mice using the procedure of A. Peister, et al. (Blood 103:1662-1668 (2004)). These cells readily undergo differentiation into osteogenic, adipogenic or alternative lineages using standard modifiers.
Nuclear and Cytoplasmic Protein Fractionation: The cells were washed with 1× phosphate-buffered saline, the cell pellet was re-suspended in 0.33 M sucrose, 10 mM Hepes, pH 7.4.1 mM MgCl^2, 0.1% Triton X-100 (pellet versus buffer, 1:5) and placed on ice for 15 minutes. After centrifugation at 3,000 rpm for 5 minutes, the supernatant was collected (cytoplasmic fraction). The pellet was re-suspended in 0.45 M NaCl and 10 mM Hepes, pH 7.4, and placed on ice for 15 minutes. After centrifugation at 12,000 rpm for 5 minutes, the nuclear fraction supernatant was collected.
Western blotting: Details were as in Sen, et al. (Endocrinology 42:6065-6075 (2008)). Antibodies included those directed against active β-catenin (Upstate, Temecula, CA), total […] (BD, Bedford, MA), total-GSK3β Chemicon, Billerica, MA), aP2, PPARγ, adiponectin, COX2, NFATc1 and tubulin (Santa Cruz, CA). Densitometry was determined using NIH ImageJ, 1.37v.
It was next determined whether LV induced inhibition of GSK30 was potent enough to modulate NFATc1/COX2 signaling. In MSC treated with LIV (two 20-minute sessions/day separated by 3 hours). […] This was also true when LIV was delivered to mdMSC: NFATc1 was increased in the nuclear fraction and COX2 rose in the cytoplasm.

dose at which β-catenin was activated: 5 µM | dose at which an effect on COX2 was seen (no effect seen below this dose): 10 µM | NFATc1 localisation (preceding the COX2 effect): nuclear accumulation of NFATc1
SMILES: O=C1NC(=O)C(c2ccccc2[N+](=O)[O-])=C1Nc1ccc(O)c(Cl)c1 [SB415286]
